# Results reported in patent publication US5547956A, “Pharmaceutical composition and the method for treating drug addicts' withdrawal syndromes and detoxifying addicts by the same” (priority 1991, dated 1996).
# Read-outs that look alike come from different tables or passages of the source.
# What was measured:
# [1] = system: mice; conditions: allyl-dromaran 10 mg/kg ip; 20 days: morphine 80 mg/kg (total 1600, 10 mice), lappaconitine 8.0 mg/kg (total 160, 18 mice)
# Experimental: Male mice weighing 18~22 g were used for the test and divided into 3 groups (10 for every group). […] The second group of mice was given a subcutaneous injection of lappaconitine hydrobromide (8 mg/kg) for 20 days. The third group was a control group and was given physiological saline. 6 hours after being given the last dose, all the mice were given an intraperitoneal injection of 10 mg/kg allyl dromaran, and then were placed in a cone cylinder cage (diameter=30 cm, height=35 cm). The number of jumps for each mouse in 60 minutes was recorded.
# [2] = system: mice; conditions: nalorphine 50 mg/kg; 2 days: morphine initial 2.5 mg/kg (total 157.5), lappaconitine initial 3.5 mg/kg (total 35); 10 mice tested
# Experimental: In another case, male mice weighing 18-22 g were divided into four groups (10 for every group). Two groups of mice were injected subcutaneously with lappaconitine hydrobromide 7 times within 2 days. The initial dosage was 3.5 mg/kg. Then, additional doses of 0.5 mg/kg and 1.0 mg/kg were given for every injection in each group, respectively. […] The initial dosage was 2.5 mg/kg and an escalating dose schedule of 5, 10, 20, 30, 40, 50 mg/kg was applied. The fourth group of mice was used as control group and was given physiological saline. Two hours after the last injection, all the mice of the above four groups were injected with 50 mg/kg nalorphine through the intraperitoneal cavity. The number of jumps within 10 minutes in each group of mice were recorded.
# [3] = system: Morphine-dependent Mice; conditions: morphine 100 mg/kg sc twice a day 8 days, nalorphine 50 mg/kg
# Experimental: In the first 4 days, administration was given once per 6 hours, four times a day. From day 5 through day 7, administration was given once every 8 hours, three times a day. On day 5 and day 8 of treatment, respectively, subcutaneous injections of nalorphine (50 mg/kg) were made to […].
compound,measurement,setting,value
"CN1CC[C@]23c4c5ccc(O)c4O[C@H]2[C@@H](O)C=C[C@H]3[C@H]1C5.Cl [Morphine, morphine hydrochloride, reference compound]",number of jumping mice,[1],9
same,number of jumping mice,[2],7
same,reactions after nalorphine in morphine-treated mice,[3],"frequent movement, attacking reactions and jumping reactions"
